Data published in patent publication US20080206469A1, “Aqueous compositions and processes including fluorocarbons” (priority 2007, published 2008).

Assay: Block resistance testing of coatings (based on ASTM D4946-89)
Set-up: key: 10: No tack; 09: Trace tack; 08: Slight tack; 07: Slight tack; 06: Moderate tack; 05: Moderate tack; 04: Severe tack, but no seal; 03: 05%-25% seal; 02: 25%-50% seal; 01: 50%-75% seal; 100% seal
Conditions: for Block Rating after Drying 4 Day RT: 4 day dry; for Block Rating after Drying 7 Day RT: 7 day dry
[1] = fluorocarbon level 5000 ppm on binder solids
[2] = fluorocarbon level 10000 ppm on binder solids
[3] = fluorocarbon level 1000 ppm on binder solids

| SMILES | Block Rating after Drying 7 Day RT [1] | Block Rating after Drying 7 Day RT [2] | also measured |
| --- | --- | --- | --- |
| N.N.O=P(O)(O)OCC(F)(F)C(F)(F)C(F)(F)F [Example 8] | 10 |  | Block Rating after Drying 4 Day RT [1]: 10 |
| N.O=S(=O)(O)OCC(F)(F)C(F)(F)C(F)(F)F [Example 9] |  | 10 |  |
| O=S(=O)([O-])C(F)(F)C(F)(F)C(F)(F)C(F)(F)C(F)(F)C(F)(F)F.[K+] [Example 14] |  | 10 |  |
| N.N.O=P(O)(O)OCCC(F)(F)C(F)(F)C(F)(F)C(F)(F)F [Example 12, Nonafluorohexyl Phosphate] |  |  | Block Rating after Drying 4 Day RT [3]: 10; Block Rating after Drying 7 Day RT [3]: 10 |
| N.O=S(=O)(O)OCCC(F)(F)C(F)(F)C(F)(F)C(F)(F)F [Example 13, Nonafluorohexyl Sulfate] | 10 | 10 | Block Rating after Drying 4 Day RT [2]: 10 |
